Experimental data reported in PMC9287142.
These are yes or no findings as the source states them, for the method shown. In cells and extracts the contact can be indirect. Some binding calls cover weakened binding; strength is not graded here. For part of these data: Sequences can lack the tags named with a protein.

Amino acid sequences for entries named in this document (tags omitted).
UniProt Q9UKM9: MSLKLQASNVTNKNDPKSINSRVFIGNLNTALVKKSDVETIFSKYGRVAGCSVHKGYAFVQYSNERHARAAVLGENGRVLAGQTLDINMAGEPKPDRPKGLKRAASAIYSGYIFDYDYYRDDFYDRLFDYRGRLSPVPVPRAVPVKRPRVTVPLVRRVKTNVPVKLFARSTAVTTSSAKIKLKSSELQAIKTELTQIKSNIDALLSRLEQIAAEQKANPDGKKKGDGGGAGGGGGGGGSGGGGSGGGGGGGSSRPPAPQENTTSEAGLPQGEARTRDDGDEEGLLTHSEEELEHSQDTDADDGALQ

Columns and labels:
FLAG-RALY = FLAG-RALY (UniProt Q9UKM9); assay: co-IP; HEK 293T cells cotransfected for 24 h, lysed in NP40 lysis buffer, anti-FLAG-antibody-bound Dynabeads Protein G, Western blot; also with RNase in the cell lysis
[1] = biological target: RALY expressed from pCold TF in E. coli (UniProt Q9UKM9); assay: pull-down; GST affinity-isolation: proteins expressed from pCold GST or pCold TF in E. coli BL21 (DE3), GST Protein Interaction Pull-Down Kit (Thermo), eluted with reduced glutathione, Western blot

Row | binding (FLAG-RALY) | binding [1] | Binder
1 | binds | – | MYC-MARCH8 (protein, UniProt Q5T0T0 1-291) MSMPLHQISAIPSQDAISARVYRSKTKEKEREEQNEKTLGHFMSHSSNISKAGSPPSASAPAPVSSFSRTSITPSSQDICRICHCEGDDESPLITPCHCTGSLHFVHQACLQQWIKSSDTRCCELCKYEFIMETKLKPLRKWEKLQMTSSERRKIMCSVTFHVIAITCVVWSLYVLIDRTAEEIKQGQATGILEWPFWTKLVVVAIGFTGGLLFMYVQCKVYVQLWKRLKAYNRVIYVQNCPETSKKNIFEKSPLTEPNFENKHGYGICHSDTNSSCCTEPEDTGAEIIHV
2 | binds | – | MYC-NDP52 (protein, UniProt Q13137 1-446) MEETIKDPPTSAVLLDHCHFSQVIFNSVEKFYIPGGDVTCHYTFTQHFIPRRKDWIGIFRVGWKTTREYYTFMWVTLPIDLNNKSAKQQEVQFKAYYLPKDDEYYQFCYVDEDGVVRGASIPFQFRPENEEDILVVTTQGEVEEIEQHNKELCKENQELKDSCISLQKQNSDMQAELQKKQEELETLQSINKKLELKVKEQKDYWETELLQLKEQNQKMSSENEKMGIRVDQLQAQLSTQEKEMEKLVQGDQDKTEQLEQLKKENDHLFLSLTEQRKDQKKLEQTVEQMKQNETTAMKKQQELMDENFDLSKRLSENEIICNALQRQKERLEGENDLLKRENSRLLSYMGLDFNSLPYQVPTSDEGGARQNPGLAYGNPYSGIQESSSPSPLSIKKCPICKADDICDHTLEQQQMQPLCFNCPICDKIFPATEKQIFEDHVFCHSL
3 | – | binds | NDP52 expressed in E. coli (protein, UniProt Q13137 1-446) MEETIKDPPTSAVLLDHCHFSQVIFNSVEKFYIPGGDVTCHYTFTQHFIPRRKDWIGIFRVGWKTTREYYTFMWVTLPIDLNNKSAKQQEVQFKAYYLPKDDEYYQFCYVDEDGVVRGASIPFQFRPENEEDILVVTTQGEVEEIEQHNKELCKENQELKDSCISLQKQNSDMQAELQKKQEELETLQSINKKLELKVKEQKDYWETELLQLKEQNQKMSSENEKMGIRVDQLQAQLSTQEKEMEKLVQGDQDKTEQLEQLKKENDHLFLSLTEQRKDQKKLEQTVEQMKQNETTAMKKQQELMDENFDLSKRLSENEIICNALQRQKERLEGENDLLKRENSRLLSYMGLDFNSLPYQVPTSDEGGARQNPGLAYGNPYSGIQESSSPSPLSIKKCPICKADDICDHTLEQQQMQPLCFNCPICDKIFPATEKQIFEDHVFCHSL
